Hit rate of the full screen: of about 330,000 compounds, about 7,700 (2.3%) were called active. Inconclusive means that the source gave no clear call. Such entries were picked first, then a sample of the others. Calls come from the whole dose curve; as a rule, active = well fitted inhibition curve with a large enough effect; inconclusive = small, poorly fitted or top-dose-only effect, or effect the other way; inactive = flat fitted curve, though single readings scatter. Potencies of inconclusive entries are doubtful fits and often do not repeat.
experiment: qHTS screen for small molecules that inhibit ELG1-dependent DNA repair in human embryonic kidney (HEK293T) cells expressing luciferase-tagged ELG1; conditions: HEK293T ELG1-luciferase reporter, luminescence, 16 h, DNA damage induced by 5-fluorouridine; series mostly up to 46.1 µM; note: nearly all actives have a fitted effect of over 55% in size
In short: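 HEK293T cells expressing luciferase-tagged ELG1 (2,000/well) received 5-Fluorouridine plus compound or DMSO for 16 hr at 37 °C. Luciferase was read by ONE-Glo luminescence after 30 min at room temperature.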
Potency is the fitted concentration of half-maximal effect.

Compound | Potency
COc1ccc(COc2cc(-c3cccc(OC)c3)nc3ccc(NC(=O)c4ccc(C)cc4)cc23)cc1 | inconclusive: 6.51 µM [inhibitor, full curve]
CC/C(=N\n1nnnc1Nc1ccccc1)c1ccccc1 | inconclusive: 25.9 µM [inhibitor, single point]
COc1cc(/C(C)=C/c2ccccc2)c2c(c1)oc1ccccc12 | inactive
O=C(NC(Cc1c[nH]c2ccccc12)C(=O)N/N=C/c1cccnc1)c1cccs1 (stereo not given) | inconclusive: 23.1 µM [activator, partial curve, poor fit]
CC1CCC(NC(=O)COC(=O)c2ccc3ncsc3c2)CC1 (stereo not given) | inconclusive: 29.1 µM [activator, single point]
COc1ccc(CC(=O)OCC(=O)NC(=O)Nc2ccccc2F)cc1 | inconclusive: 25.9 µM [activator, single point]
CSC1=N/C(=C\c2cccnc2)C(=O)N1c1ccccc1 | inconclusive: 18.4 µM [activator, partial curve]
Oc1c(C(c2ccccc2)N2CCN(Cc3ccccc3)CC2)sc2ncnn12 (stereo not given) | inactive
Cc1ccc(C)c(-c2cc(C(=O)Nc3nccs3)c3ccccc3n2)c1 | inconclusive: 11.2 µM [inhibitor, partial curve]
Cc1cc(=O)c2cc3nc(-c4cccnc4)oc3c(Br)c2o1 | inconclusive: 29.1 µM [activator, single point]
C/C=C(/C)C(=O)O[C@@H]1c2c(ccc3ccc(=O)oc23)O[C@@H]1C(C)(C)OC(=O)/C(C)=C\C | inconclusive: 29.1 µM [inhibitor, single point]
Nc1nc(NCC2CCCO2)nc(Nc2ccc(F)cc2)c1[N+](=O)[O-] (stereo not given) | inconclusive: 18.4 µM [inhibitor, partial curve, poor fit]
CC1CCc2c(sc3nc4n(c(=O)c23)CCS4)C1 (stereo not given) | inconclusive: 18.4 µM [activator, partial curve]
Cc1ccc([N+](=O)[O-])cc1NC(=O)c1cccnc1 | inactive
Cc1ccc(C(=O)N2CCC(C(=O)c3c(C)cc(C)cc3C)CC2)cc1 | active: 16.4 µM
Cc1ccc(C)c(NC(=O)CCN2CCC(C)CC2)c1 | inactive
CC(C)COc1ccc(-c2nnc(-c3ccco3)o2)cc1 | inconclusive: 1.84 µM [activator, partial curve]
COc1ccccc1NC(=O)C[n+]1ccccc1C | inconclusive: 29.1 µM [inhibitor, single point]
CC1CC(C)CN(Cc2nc(N)nc(Nc3ccc4ccccc4c3)n2)C1 (stereo not given) | inconclusive: 23.1 µM [inhibitor, single point]
CC1(C)CC2CC(C)(CN2c2ncnc3ccc(Br)cc23)C1 (stereo not given) | inconclusive: 25.9 µM [inhibitor, partial curve, poor fit]
Cc1ccc(C(=O)Nc2ccc3nccnc3c2)cc1 | inconclusive: 1.64 µM [activator, partial curve]
CN(C(=O)c1ccco1)c1nc(CC(=O)Nc2ccccc2)cs1 | inactive
CCn1c(C)nc2cc(C(=O)NN=Cc3ccc([N+](=O)[O-])cc3)ccc21 | inactive
Cc1nc2cc(C(=O)NCc3cccnc3)ccc2n1-c1ccc(F)cc1F | inconclusive: 32.6 µM [inhibitor, single point]

For convenience, part of the list above.
Compound | Potency
O=C(NC(Cc1c[nH]c2ccccc12)C(=O)N/N=C/c1cccnc1)c1cccs1 (stereo not given) | inconclusive: 23.1 µM [activator, partial curve, poor fit]
CC1CCC(NC(=O)COC(=O)c2ccc3ncsc3c2)CC1 (stereo not given) | inconclusive: 29.1 µM [activator, single point]

The listing continues.

Compound | Potency
Cn1ncc(Cl)c1C(=O)NCc1ccc(Cl)cc1 | inconclusive: 8.2 µM [inhibitor, partial curve, poor fit]
CC(C)c1ccc(-c2cc(C(=O)NN3CCN(C)CC3)c3ccccc3n2)cc1 | inconclusive: 9.2 µM [activator, partial curve]
CCCOc1ccc(/C=C2\SC(N)=NC2=O)cc1OC | inconclusive: 16.4 µM [activator, single point]
O=C(Cc1ccccc1)N/N=C/c1ccccc1OCc1ccc(Cl)cc1 | inconclusive: 16.4 µM [activator, partial curve]
CCC(CO)Nc1ncnc2c1cnn2-c1ccc(OC)cc1 (stereo not given) | inconclusive: 2.06 µM [activator, full curve]
CC(C)(C)c1csc(NC(=O)c2ccc(Cl)s2)n1 | inactive
CC(=O)c1cccc(NC(=O)c2ccc(NS(=O)(=O)c3c(C)noc3C)cc2)c1 | inconclusive: 29.1 µM [activator, single point]
COc1ccc(/C=N/NC(=O)c2nnn(-c3nonc3N)c2CN(C)c2ccccc2)cc1 | inconclusive: 23.1 µM [inhibitor, partial curve]
Cc1ccccc1OCC(=O)N/N=C/c1ccc(Sc2nc3ccccc3s2)o1 | inconclusive: 20.6 µM [inhibitor, single point]
COc1ccc(CN2C(=O)c3cccnc3C2=O)cc1S(=O)(=O)NCc1ccccc1 | inconclusive: 32.6 µM [activator, partial curve, poor fit]
Nc1nc2nc(-c3ccccc3)cc(=O)n2[nH]1 | inconclusive: 18.4 µM [activator, partial curve, poor fit]
CCCCn1c(=O)[nH]c(=O)c2c1nc(COC(=O)c1c(C)noc1C)n2CCC | inconclusive: 16.4 µM [inhibitor, single point]
CC(C)(C)C(O)CN1CCCC1 (stereo not given) | inactive
CC(CNS(=O)(=O)c1ccc2c(c1)NC(=O)CCS2)c1ccccc1 (stereo not given) | inactive
Cc1cccc(C)c1OCC(=O)Nc1ccc2c(c1)OCCO2 | inconclusive: 29.1 µM [activator, single point]
COc1ccc(CNC(=O)CSc2ncnc3nc[nH]c23)cc1 | inactive
CCOc1ccccc1CNCc1ccc(C(=O)O)cc1 | inactive
CCC/C(C)=N/NC(=O)c1ccccc1O | inactive
Cc1oc2ncnc(N)c2c1C | inactive
N#CC(C(=O)NCc1ccco1)c1nc2ccccc2nc1N1CCOCC1 (stereo not given) | inconclusive: 20.6 µM [inhibitor, partial curve, poor fit]
CN(c1cnn(-c2ccccc2)c(=O)c1Cl)n1cccc1 | inconclusive: 20.6 µM [activator, partial curve]
CCOc1ccc2[nH]c(=O)c(CN(CC3COCCO3)C(=O)c3ccc(C)cc3)cc2c1 (stereo not given) | inactive
COc1ccc(/C=N\NC(=O)c2ccc([N+](=O)[O-])c(C)c2)cc1COc1ccccc1C(N)=O | inconclusive: 23.1 µM [inhibitor, single point]
COc1ccc(C(=O)N2CCN(CCNC(=O)C(=O)Nc3ccc(Br)cc3)CC2)cc1 | inconclusive: 29.1 µM [inhibitor, single point]

Taken from above:
Value for `CCCOc1ccc(/C=C2\SC(N)=NC2=O)cc1OC` under Potency: inconclusive: 16.4 µM [activator, single point]
Value for `CCOc1ccccc1CNCc1ccc(C(=O)O)cc1` under Potency: inactive

(listing goes on)

Compound | Potency
Cc1cc(C(=O)Nc2sc(C)c(-c3ccc(F)cc3)c2C(N)=O)no1 | inconclusive: 2.06 µM [activator, partial curve]
COc1cccc(-c2cc(C(=O)NCC3CCCO3)c3ccccc3n2)c1 (stereo not given) | inconclusive: 20.6 µM [inhibitor, single point]
CCOC(CNC(=O)c1nnc(Cc2cc(OC)c(OC)c(OC)c2)o1)OCC | inconclusive: 18.3 µM [activator, partial curve, poor fit]
COc1ccc2c(c1)C1=NN(/C(C)=C/C(C)=O)C(c3ccc(F)cc3)C1CC2 (stereo not given) | inconclusive: 16.4 µM [activator, partial curve]
CC(=O)c1cccc(NC(=O)Cn2cnc(S(=O)(=O)N3CCOCC3)c2)c1 | inactive
N#CCc1c(C#N)c(N)nc(N2CCN(S(=O)(=O)c3ccccc3F)CC2)c1C#N | inconclusive: 20.6 µM [inhibitor, single point]
NC(N)=N/N=C/c1ccccc1OC(F)F | inactive
CCc1cccc(C)c1NC(=O)CSc1nnc(-c2cc3cc(Br)ccc3o2)n1CC | inconclusive: 23.1 µM [inhibitor, single point]
CCOC(=O)N1CCN(C(=O)CCCn2c(=S)[nH]c3ccc(Br)cc3c2=O)CC1 | active: 23.1 µM
COc1cc(C(=O)Nc2oc(-c3ccccc3)c(-c3ccccc3)c2C#N)cc(OC)c1OC | active: 23.1 µM
COc1ccc(C2Nc3ccccc3C(=O)N2NS(=O)(=O)c2ccccc2)cc1OC (stereo not given) | inactive
Cc1cc(C)n(Cc2cccc(C(=O)N/N=C/c3ccncc3)c2)n1 | inconclusive: 23.1 µM [activator, partial curve, poor fit]
C[C@@H]1CC=C[C@@H]2[C@H]1C(=O)N(Cc1ccccc1)[C@H]2c1ccccc1Br | inconclusive: 23.1 µM [inhibitor, single point]
Cc1cc(C(=O)CCC(=O)N2CCN(S(=O)(=O)c3cccs3)CC2)c(C)s1 | inconclusive: 25.9 µM [inhibitor, partial curve, poor fit]
Cc1ccc(NC(=O)C2CCN(S(=O)(=O)c3ccc4c(c3)CCCC(=O)N4)CC2)c(Br)c1 | inactive
CC1(c2ccccc2)NC(=O)N(CC(=O)Nc2ccccc2N2CCCC2)C1=O (stereo not given) | inconclusive: 5.17 µM [activator, partial curve, poor fit]
Cc1ccccc1N/N=C/c1ccc(C#N)cc1 | inconclusive: 29.1 µM [activator, single point]
Cn1c(SCc2cccc(Br)c2)nnc1-c1ccncc1 | inactive
OCCN1CCN(c2nc(N3CCCCC3)nc(N3CCCCC3)n2)CC1 | inconclusive: 20.6 µM [inhibitor, single point]
CC1CCN(c2ccc(-c3cccs3)nn2)CC1 | inconclusive: 0.116 µM [activator, full curve, poor fit]
Nc1nc2nc(-c3cccs3)cc(C(F)(F)F)n2n1 | inactive
O=C(CSc1nnnn1-c1ccc(Cl)cc1)NC(=O)Nc1ccc2c(c1)OCCO2 | inconclusive: 16.4 µM [activator, partial curve]

Reference: PubChem BioAssay AID504467 (National Center for Advancing Translational Sciences (NCATS), 2011)
